Measured values from PMC8698651.
These are yes or no findings as the source states them, for the method shown. Binding seen in cells or lysates may run through a third protein. Some results given as binding are weak or reduced against the parent protein; the word gives no strength.

The chains behind the UniProt entries cited, without tags or fusion partners.
UniProt Q8BTM8: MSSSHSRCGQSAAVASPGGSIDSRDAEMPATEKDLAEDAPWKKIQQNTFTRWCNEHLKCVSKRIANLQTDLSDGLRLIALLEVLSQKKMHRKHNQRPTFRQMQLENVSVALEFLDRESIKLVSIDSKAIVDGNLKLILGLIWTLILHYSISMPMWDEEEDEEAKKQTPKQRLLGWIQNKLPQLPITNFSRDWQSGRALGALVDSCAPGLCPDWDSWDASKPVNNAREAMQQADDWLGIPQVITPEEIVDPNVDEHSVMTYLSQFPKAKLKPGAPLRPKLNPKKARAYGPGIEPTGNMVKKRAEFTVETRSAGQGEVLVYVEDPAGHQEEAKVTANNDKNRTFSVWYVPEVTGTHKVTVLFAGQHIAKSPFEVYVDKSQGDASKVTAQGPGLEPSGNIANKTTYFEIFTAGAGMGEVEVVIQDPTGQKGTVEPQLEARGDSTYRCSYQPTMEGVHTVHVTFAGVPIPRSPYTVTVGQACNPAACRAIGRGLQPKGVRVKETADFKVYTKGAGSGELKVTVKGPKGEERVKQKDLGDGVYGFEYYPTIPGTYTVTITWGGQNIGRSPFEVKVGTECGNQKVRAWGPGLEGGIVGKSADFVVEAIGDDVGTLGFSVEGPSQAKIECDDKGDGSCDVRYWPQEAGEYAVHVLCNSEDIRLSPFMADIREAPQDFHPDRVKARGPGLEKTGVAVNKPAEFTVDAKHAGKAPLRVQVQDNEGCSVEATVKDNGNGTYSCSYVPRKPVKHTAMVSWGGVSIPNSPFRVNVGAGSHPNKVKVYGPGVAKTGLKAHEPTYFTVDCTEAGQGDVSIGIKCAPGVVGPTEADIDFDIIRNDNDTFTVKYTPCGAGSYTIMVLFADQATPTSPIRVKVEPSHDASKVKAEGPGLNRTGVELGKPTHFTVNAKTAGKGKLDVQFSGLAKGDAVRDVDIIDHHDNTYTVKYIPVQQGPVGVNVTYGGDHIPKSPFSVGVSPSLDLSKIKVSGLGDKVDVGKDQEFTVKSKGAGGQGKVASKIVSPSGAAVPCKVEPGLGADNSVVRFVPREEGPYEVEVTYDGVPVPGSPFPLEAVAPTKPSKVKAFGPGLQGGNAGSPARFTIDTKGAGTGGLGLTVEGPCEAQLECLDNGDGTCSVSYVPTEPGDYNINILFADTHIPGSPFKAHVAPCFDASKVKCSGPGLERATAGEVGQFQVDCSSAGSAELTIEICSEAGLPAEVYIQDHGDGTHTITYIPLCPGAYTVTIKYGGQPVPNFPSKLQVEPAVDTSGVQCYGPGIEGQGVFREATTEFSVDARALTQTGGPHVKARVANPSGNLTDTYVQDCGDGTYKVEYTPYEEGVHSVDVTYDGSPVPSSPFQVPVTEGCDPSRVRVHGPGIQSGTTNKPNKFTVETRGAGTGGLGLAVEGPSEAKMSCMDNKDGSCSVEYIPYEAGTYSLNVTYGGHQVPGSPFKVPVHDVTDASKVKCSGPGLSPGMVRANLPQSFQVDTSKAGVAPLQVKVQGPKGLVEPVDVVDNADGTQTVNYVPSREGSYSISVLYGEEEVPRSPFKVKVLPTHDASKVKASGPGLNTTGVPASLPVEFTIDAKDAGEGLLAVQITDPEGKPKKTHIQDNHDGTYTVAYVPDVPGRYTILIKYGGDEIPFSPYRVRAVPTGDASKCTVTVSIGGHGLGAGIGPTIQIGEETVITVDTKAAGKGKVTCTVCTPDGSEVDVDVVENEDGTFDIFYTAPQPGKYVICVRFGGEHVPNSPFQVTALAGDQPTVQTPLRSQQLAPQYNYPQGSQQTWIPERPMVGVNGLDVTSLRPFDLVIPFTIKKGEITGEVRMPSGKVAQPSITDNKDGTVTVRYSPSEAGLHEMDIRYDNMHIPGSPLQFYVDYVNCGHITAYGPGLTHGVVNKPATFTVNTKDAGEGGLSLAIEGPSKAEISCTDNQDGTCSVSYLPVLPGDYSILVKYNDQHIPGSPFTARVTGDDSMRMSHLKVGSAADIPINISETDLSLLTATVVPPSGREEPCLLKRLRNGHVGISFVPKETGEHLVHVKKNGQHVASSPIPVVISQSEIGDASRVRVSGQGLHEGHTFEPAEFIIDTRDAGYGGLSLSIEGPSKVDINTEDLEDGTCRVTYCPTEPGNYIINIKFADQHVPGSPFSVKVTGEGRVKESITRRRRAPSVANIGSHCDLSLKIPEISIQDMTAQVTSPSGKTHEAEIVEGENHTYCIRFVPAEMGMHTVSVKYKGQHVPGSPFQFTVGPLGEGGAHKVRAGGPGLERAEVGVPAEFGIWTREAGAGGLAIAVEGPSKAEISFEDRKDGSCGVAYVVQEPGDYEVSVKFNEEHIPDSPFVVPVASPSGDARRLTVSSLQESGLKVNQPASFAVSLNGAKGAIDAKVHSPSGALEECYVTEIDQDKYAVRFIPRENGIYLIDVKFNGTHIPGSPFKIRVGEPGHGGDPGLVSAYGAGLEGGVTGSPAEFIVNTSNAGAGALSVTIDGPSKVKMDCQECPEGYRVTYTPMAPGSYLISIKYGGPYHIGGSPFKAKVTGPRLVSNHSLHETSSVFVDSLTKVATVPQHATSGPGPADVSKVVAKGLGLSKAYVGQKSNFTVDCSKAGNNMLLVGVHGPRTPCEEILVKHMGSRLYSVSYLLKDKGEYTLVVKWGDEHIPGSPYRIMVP

Biological target: filamin A (mouse (endogenous in mouse kidney cortex and mDCT15 cells)) (UniProt Q8BTM8)
Experiment: co-IP; endogenous proteins from mouse kidney cortex tissue lysates or mDCT15 cell lysates (MPER with protease and phosphatase inhibitors); NCC or filamin antibody overnight at 4 °C, protein G beads 4 h, three washes with 1XPBS; Western blot for the partner

B1: thiazide-sensitive sodium chloride cotransporter (NCC) (protein, UniProt P59158 1-1002)
chain: MAELPVTELPGDALCSGRFTISTLMGGDEPPPAACDSSQPSHLTHGSTLYMRTFGYNTIDVVPAYEHYANSALPGEPRKVRPTLADLHSFLKQEGSHLHALAFDGRQGRELTDGLVEDETGTNSEKSPGEPVRFGWVKGVMIRCMLNIWGVILYLRLPWITAQAGIVLTWLIILLSVMVTSITGLSISAISTNGKVKSGGTYFLISRSLGPELGGSIGLIFAFANAVGVAMHTVGFAETVRDLLQEYGTPIVDPINDIRIIGVVTVTVLLAISLAGMEWESKAQVLFFLVIMVSFANYLVGTLIPASEDKASKGFYSYHGDIFVQNLVPDWRGIDGSFFGMFSIFFPSATGILAGANISGDLKDPAVAIPKGTLMAIFWTTISYLAISATIGSCVVRDASGDVNDTMTPGPGPCEGLACGYGWNFTECSQQRSCRYGLINYYQTMSMVSAFAPLITAGIFGATLSSALACLVSAAKVFQCLCEDQLYPLIGFFGKGYGKNREPVRGYLLAYAIAVAFIIIAELNTIAPIISNFFLCSYALINFSCFHASITNSPGWRPSFRYYSKWAALFGAVISVVIMFLLTWWAALIAIGVVLFLLLYVIYKKPEVNWGSSVQAGSYNLALSYSVGLNEVEDHIKNYRPQCLVLTGPPNFRPALVDFVSTFTQNLSLMICGHVLIGPGKQRVPELRLIASGHTKWLNKRKIKAFYSDVIAEDLRSGVQILMQASGLGRMKPNILVVGFKRNWQSAHPATVEDYIGVLHDAFDFNYGVCVMRMREGLNVSEALQTHTTPEALIQEEQASTIFQSEQGKKTIDIYWLFDDGGLTLLIPYLLHRKKRWGKCKIRVFVGGQINRMDEERKAIISLLSKFRLGFHEVHVLPDINQKPQAEHTKRFEDMIAPFRLNDGFKDEATVTEMRRDCPWKISDEEINKNRIKSLRQVRLSEILLDYSRDAALIILTLPIGRKGKCPSSLYMAWLETLSQDLRPPVLLIRGNQENVLTFYCQ
- binding: binds
